Experimental data: article PMC3832380
Results are given in words; binding and its absence hold for the method and conditions named. Binding seen in cells or lysates may run through a third protein. Some entries that bind do so weakly or less than the wild type.

Amino acid sequences for entries named in this document (tags omitted). A change or cut given only in a name is not applied to a line headed by its entry.
UniProt O08808: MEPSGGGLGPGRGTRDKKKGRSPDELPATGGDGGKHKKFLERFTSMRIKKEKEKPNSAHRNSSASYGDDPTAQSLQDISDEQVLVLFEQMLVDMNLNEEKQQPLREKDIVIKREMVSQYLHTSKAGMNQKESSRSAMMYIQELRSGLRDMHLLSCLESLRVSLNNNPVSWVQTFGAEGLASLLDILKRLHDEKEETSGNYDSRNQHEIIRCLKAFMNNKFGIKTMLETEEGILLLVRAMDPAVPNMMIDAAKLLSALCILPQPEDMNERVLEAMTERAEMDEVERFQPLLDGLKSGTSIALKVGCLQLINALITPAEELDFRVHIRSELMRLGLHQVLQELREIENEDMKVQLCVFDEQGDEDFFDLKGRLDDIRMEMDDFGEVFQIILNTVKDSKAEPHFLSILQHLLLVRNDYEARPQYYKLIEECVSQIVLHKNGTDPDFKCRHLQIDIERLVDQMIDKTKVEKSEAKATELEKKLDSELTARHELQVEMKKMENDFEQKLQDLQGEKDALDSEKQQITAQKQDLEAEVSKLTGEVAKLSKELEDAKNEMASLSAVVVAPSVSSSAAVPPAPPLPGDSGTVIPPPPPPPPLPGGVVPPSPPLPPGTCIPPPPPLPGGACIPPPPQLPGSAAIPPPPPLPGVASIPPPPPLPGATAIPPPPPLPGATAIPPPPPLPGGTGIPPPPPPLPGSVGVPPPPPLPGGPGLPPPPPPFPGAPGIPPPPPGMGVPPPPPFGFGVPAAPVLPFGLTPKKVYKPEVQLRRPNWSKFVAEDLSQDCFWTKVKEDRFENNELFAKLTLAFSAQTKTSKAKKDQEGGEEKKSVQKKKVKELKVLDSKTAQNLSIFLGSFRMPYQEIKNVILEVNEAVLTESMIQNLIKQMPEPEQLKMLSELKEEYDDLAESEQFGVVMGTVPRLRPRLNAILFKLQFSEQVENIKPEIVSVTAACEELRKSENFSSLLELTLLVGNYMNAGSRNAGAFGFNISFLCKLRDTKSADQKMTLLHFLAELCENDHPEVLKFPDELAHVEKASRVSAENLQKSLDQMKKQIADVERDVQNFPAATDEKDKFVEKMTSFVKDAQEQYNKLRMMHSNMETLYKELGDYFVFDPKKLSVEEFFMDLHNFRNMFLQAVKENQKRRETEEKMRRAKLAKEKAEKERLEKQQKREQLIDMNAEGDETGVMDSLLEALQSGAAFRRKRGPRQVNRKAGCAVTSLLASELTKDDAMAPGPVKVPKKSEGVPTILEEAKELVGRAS
UniProt P24063: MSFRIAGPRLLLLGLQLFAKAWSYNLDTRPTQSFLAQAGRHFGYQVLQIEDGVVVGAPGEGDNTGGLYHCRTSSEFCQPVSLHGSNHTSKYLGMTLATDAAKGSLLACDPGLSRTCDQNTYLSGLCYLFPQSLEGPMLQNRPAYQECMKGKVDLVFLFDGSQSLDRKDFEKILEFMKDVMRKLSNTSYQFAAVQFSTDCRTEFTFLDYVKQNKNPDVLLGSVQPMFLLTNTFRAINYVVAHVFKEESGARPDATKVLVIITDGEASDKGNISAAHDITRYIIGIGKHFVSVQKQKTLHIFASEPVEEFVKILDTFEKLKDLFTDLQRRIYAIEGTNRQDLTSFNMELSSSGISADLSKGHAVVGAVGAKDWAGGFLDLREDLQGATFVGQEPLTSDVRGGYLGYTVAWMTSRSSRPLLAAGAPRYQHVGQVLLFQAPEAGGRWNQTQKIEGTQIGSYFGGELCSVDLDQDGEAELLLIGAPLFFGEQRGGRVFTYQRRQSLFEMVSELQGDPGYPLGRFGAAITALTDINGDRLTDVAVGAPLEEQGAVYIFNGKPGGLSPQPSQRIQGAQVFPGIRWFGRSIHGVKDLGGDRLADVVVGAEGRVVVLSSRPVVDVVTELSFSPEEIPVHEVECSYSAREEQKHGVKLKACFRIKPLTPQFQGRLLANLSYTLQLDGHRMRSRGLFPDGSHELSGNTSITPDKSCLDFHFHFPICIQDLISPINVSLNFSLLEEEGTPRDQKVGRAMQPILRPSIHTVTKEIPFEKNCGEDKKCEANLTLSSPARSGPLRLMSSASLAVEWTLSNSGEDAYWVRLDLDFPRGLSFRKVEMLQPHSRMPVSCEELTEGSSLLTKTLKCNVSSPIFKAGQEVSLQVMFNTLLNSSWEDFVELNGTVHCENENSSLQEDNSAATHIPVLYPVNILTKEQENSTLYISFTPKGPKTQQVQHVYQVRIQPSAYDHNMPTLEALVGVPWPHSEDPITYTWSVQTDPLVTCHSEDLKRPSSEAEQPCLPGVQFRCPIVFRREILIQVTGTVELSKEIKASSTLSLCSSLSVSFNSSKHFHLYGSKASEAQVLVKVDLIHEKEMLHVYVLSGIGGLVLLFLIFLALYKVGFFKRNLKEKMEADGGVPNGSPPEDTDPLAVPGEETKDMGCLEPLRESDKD

Target: mammalian diaphanous-related formin 1 (mDia1) (mouse (endogenous in T-lymphoblasts)) (UniProt O08808)
Test: co-IP; anti-mDia1 antibody (or control IgG) immunoprecipitation from lysates of wild-type T-lymphoblasts plated on ICAM-1 (3 μg/ml) and stimulated with 100 ng/ml CXCL12 for 30 min; lysis buffer 1% Triton X-100, 150 mM KCl, 150 mM NaCl; 4°C; blots with anti-mDia1, anti-GSK3β or anti-LFA-1

lymphocyte function-associated antigen 1 (LFA-1) (from UniProt P24063 24-1162; P11835 24-771) (complex)
binding: binds
